No constants are given. Whether binding was seen depends on the method and setting. Some binding calls cover weakened binding; strength is not graded here.
Assays:
[1] = molecular target: human C5a receptor on hC5aR-expressing HEK cells (construct not named for these assays) (human) (UniProt P21730); assay: flow cytometry on cells; inhibition of PE-anti-CD88 binding: hC5aR-expressing HEK cells with increasing S(wt) or C5a, 45 min at 4°C, then anti-CD88; RPMI-HSA; only the binder purified
[2] = molecular target: human C5a receptor on hC5aR-expressing HEK cells (construct not named for these assays) (human) (UniProt P21730); assay: flow cytometry on cells; C5a rebinding: hC5aR-expressing HEK cells with 1 µM S(wt), 45 min at 4°C, washed, then 20 nM NT647-labeled C5a and increasing LukF (results: F(G130D)), 20 min at 37°C, 5% CO2; only the binder purified
[3] = molecular target: human C5a receptor on hC5aR-expressing HEK cells (construct not named for these assays) (human) (UniProt P21730); assay: flow cytometry on cells; only the binder purified
[4] = molecular target: human C5a receptor, endogenous on human polymorphonuclear cells (human (endogenous in PMNs)) (UniProt P21730); assay: flow cytometry on cells; anti-CD88 rebinding on S(wt)-precoated human PMNs with increasing F(G130D) (Supplemental Fig. S9); only the binder purified

Amino acid sequences for entries named in this document (tags omitted). Residues count along the entry.
UniProt P21730: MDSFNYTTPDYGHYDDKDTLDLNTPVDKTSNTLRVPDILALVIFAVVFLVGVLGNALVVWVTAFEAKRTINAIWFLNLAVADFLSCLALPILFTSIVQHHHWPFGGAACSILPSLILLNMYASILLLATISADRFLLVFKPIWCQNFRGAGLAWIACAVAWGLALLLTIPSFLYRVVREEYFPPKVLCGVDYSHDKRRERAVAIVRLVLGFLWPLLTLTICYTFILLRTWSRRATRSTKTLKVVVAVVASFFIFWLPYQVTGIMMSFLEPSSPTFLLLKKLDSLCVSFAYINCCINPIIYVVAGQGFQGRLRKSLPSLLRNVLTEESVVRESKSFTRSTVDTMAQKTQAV
UniProt P01031, residues 678-751: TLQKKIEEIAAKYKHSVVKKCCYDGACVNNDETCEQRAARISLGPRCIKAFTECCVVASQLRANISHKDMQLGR

Substance | binding [1] | binding [2] | binding [3] | binding [4]
C5a anaphylatoxin (from UniProt P01031 678-751) (ligand) | binds | – | – | –
NT647-labeled C5a (from UniProt P01031 678-751) (ligand) | – | binds | – | –
wild-type Staphylococcus aureus leukocidin S (from UniProt O80066 29-312) | binds | binds | binds | binds

Source: publication PMC6404581, “Staphylococcus aureus toxin LukSF dissociates from its membrane receptor target to enable renewed ligand sequestration” (The FASEB Journal, 2018)
